No constants are given. Whether binding was seen depends on the method and setting. In cells and extracts the contact can be indirect.

Chains of the proteins cited; added tags and fusions are not shown.
UniProt P29375: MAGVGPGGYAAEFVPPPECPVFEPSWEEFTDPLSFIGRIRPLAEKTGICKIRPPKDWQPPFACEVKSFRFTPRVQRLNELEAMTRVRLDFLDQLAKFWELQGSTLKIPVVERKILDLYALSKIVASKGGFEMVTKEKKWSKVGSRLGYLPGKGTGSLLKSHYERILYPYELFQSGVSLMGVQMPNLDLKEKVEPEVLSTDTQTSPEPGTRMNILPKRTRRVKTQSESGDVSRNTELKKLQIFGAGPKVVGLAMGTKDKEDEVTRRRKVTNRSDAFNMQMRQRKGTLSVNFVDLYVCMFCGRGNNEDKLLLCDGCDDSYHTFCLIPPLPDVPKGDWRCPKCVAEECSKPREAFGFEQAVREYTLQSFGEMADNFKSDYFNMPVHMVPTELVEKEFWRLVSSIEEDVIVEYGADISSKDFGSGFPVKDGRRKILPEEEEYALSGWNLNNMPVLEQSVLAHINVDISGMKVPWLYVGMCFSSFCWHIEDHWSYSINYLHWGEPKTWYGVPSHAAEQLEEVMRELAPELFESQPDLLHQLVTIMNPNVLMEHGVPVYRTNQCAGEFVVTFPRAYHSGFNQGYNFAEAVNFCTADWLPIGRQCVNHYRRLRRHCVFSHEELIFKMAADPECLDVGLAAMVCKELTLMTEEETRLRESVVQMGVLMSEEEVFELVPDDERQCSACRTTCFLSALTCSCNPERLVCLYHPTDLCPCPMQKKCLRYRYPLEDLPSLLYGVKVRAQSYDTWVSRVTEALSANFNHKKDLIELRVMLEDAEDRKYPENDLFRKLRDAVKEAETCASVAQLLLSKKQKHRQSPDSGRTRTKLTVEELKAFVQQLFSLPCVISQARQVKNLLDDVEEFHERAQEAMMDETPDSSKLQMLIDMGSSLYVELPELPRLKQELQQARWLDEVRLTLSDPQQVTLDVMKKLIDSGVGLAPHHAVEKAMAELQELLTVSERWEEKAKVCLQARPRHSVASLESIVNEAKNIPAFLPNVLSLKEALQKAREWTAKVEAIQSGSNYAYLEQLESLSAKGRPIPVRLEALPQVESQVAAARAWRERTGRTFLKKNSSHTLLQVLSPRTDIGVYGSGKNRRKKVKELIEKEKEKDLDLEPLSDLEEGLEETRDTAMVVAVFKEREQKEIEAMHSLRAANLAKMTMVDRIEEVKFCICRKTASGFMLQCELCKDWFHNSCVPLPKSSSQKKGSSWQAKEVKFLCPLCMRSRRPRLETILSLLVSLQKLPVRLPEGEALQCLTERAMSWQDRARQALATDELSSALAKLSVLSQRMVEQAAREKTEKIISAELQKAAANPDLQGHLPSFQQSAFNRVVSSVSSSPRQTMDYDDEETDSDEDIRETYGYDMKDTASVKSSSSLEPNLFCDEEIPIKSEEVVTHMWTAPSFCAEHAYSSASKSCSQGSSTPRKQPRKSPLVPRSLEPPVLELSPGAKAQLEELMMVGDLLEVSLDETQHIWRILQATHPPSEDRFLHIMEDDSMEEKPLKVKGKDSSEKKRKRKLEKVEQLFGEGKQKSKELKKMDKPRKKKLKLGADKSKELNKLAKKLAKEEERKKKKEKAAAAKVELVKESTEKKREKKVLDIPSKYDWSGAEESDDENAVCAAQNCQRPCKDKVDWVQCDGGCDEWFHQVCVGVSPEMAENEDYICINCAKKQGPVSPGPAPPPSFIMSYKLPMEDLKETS

The test addresses endogenous KDM5A protein (human (endogenous in iPSC PBMC2-iPS4F8 clones)) (UniProt P29375). The test can be described thus: co-IP; pulldown against KDM5A (anti-KDM5A antibody) from mitotic extracts of nocodazole-arrested cells (iPSC-control#1, iPSC-NK5A#29, CHRF-288-11), Western blot with anti-KDM5A and anti-RAE1 antibodies.

B1: RNA export 1 (RAE1) protein (protein, UniProt P78406 1-368)
chain: MSLFGTTSGFGTSGTSMFGSATTDNHNPMKDIEVTSSPDDSIGCLSFSPPTLPGNFLIAGSWANDVRCWEVQDSGQTIPKAQQMHTGPVLDVCWSDDGSKVFTASCDKTAKMWDLSSNQAIQIAQHDAPVKTIHWIKAPNYSCVMTGSWDKTLKFWDTRSSNPMMVLQLPERCYCADVIYPMAVVATAERGLIVYQLENQPSEFRRIESPLKHQHRCVAIFKDKQNKPTGFALGSIEGRVAIHYINPPNPAKDNFTFKCHRSNGTNTSAPQDIYAVNGIAFHPVHGTLATVGSDGRFSFWDKDARTKLKTSEQLDQPISACCFNHNGNIFAYASSYDWSKGHEFYNPQKKNYIFLRNAAEELKPRNKK
Regarding B1, the binding result is “no binding”.

The record behind these values is publication PMC10257648.
